Assay [1] deals with Flag-tagged full-length RNF5 (WT) (UniProt Q99942). The experiment in a line: co-IP; HEK293T cells transfected with Flag-tagged RNF5 WT, RM or ∆CT; endogenous RBBP4 detected by western blot; MG132 (10 µm, 4 h) before lysis; TBS-lysis buffer (50 mM Tris-HCl pH 7.5, 150 mM NaCl, 0.5% Nonidet P-40), protein A/G agarose.
Assay [2] deals with Doxycycline-inducible Flag-tagged RNF5 (WT) in MOLM-13 cells (UniProt Q99942). The experiment in a line: co-IP; MOLM-13 cells with doxycycline-inducible Flag-tagged RNF5 and endogenous RBBP4; 2 days with or without doxycycline (1 µg/ml); MG132 (10 µm, 4 h) before lysis; TBS-lysis buffer, protein A/G agarose.
For the next assay, the target named is Myc-RBBP4 (UniProt Q09028). The experiment in a line: co-IP; reciprocal IP with RBBP4 as bait; HEK293T cells co-expressing Myc-RBBP4 and Flag-tagged RNF5-WT; MG132 (10 µm, 4 h) before lysis; TBS-lysis buffer, protein A/G agarose.

The chains behind the UniProt entries cited, without tags or fusion partners.
UniProt Q99942: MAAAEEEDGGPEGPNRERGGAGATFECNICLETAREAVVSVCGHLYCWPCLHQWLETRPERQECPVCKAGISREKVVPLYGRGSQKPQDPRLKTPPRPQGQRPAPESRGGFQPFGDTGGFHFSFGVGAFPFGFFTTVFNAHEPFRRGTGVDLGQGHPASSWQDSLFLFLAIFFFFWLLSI
UniProt Q09028: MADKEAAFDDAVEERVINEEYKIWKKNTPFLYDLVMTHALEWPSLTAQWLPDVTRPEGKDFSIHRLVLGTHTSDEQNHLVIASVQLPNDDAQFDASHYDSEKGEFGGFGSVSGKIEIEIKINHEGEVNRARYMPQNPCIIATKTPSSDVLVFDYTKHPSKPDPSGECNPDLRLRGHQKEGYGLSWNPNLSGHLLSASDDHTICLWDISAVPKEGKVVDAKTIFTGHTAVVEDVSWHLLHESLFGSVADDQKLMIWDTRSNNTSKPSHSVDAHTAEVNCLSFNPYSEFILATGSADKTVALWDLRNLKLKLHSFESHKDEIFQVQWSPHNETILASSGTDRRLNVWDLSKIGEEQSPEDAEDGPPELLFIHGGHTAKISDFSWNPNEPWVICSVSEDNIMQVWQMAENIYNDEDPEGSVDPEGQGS

The values that follow come from publication PMC8437979.

These are yes or no findings as the source states them, for the method shown. Binding seen in cells or lysates may run through a third protein. Some binding calls cover weakened binding; strength is not graded here.

In the case of “Endogenous RBBP4 (retinoblastoma binding protein 4) of HEK293T cells (from UniProt Q09028 1-425)”, the binding result in assay [1] was “binds”.
With “Endogenous RBBP4 (retinoblastoma binding protein 4) of MOLM-13 cells (from UniProt Q09028 1-425)”, the binding result in assay [2] is given as “binds”.
Consider “Flag-tagged full-length RNF5 (WT) (from UniProt Q99942 1-180) (enzyme)”, for which the binding result in the assay with Myc-RBBP4 was “binds”.
